# Data from paper PMC5996148.
# Chains of the proteins cited; added tags and fusions are not shown. Lines headed by an entry give the natural chain unless they say otherwise; changes in a name come on top.
# UniProt Q6NUN7: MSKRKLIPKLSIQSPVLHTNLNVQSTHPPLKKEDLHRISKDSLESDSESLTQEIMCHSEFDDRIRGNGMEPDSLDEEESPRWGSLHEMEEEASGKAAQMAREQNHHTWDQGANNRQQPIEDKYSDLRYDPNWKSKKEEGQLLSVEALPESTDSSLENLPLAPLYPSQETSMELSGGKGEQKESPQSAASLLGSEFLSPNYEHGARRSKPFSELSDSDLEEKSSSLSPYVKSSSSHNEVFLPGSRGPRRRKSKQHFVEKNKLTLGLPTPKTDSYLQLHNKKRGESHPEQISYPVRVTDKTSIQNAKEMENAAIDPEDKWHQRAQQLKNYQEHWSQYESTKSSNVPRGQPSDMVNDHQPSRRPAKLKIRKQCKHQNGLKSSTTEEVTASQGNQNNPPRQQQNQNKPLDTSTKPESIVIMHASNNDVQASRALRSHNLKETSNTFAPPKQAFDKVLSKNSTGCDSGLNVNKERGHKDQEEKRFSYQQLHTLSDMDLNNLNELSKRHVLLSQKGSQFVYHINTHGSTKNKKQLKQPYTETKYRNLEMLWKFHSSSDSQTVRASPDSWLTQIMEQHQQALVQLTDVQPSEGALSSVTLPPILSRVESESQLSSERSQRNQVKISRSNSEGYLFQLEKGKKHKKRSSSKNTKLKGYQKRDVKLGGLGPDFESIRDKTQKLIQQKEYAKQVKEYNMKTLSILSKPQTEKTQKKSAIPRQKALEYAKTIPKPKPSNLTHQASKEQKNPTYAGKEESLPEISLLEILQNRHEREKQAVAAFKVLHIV
# The list shows a part of the results. For some of these results: The source does not settle which construct or isoform was used.
# What was measured:
# Test in all cases: protein microarray (ProtoArray v5.0), streptavidin-Alexa Fluor 647
# Conditions in all cases: 3'-biotin; 20 mM Tris (pH 7.5), 5 mM MgCl2, 100 mM KCl, 0.1% Tween-20, A/T-rich and random oligonucleotide blockers; temperature not stated; high values mean tight binding
# [1] = tested on: C10orf65 (human)
# [2] = tested on: C10orf83 (human)
# [3] = tested on: C11orf45 (human)
# [4] = tested on: C11orf51 (human)
# [5] = tested on: C11orf53 (human)
# [6] = tested on: C11orf59 (human)
# [7] = biological target: C11orf63 (UniProt Q6NUN7)
# [8] = tested on: C11orf64 (human)
# [9] = tested on: C11orf65 (human)
# [10] = tested on: C11orf66 (human)
sequence,measurement,setting,value
GGGAGGCTGAGGCAGG [G4-1 biotinylated (PQS2)],binding signal,[1],-0.295 z-score
same,binding signal,[2],-0.269 z-score
same,binding signal,[3],-0.305 z-score
same,binding signal,[4],-0.346 z-score
same,binding signal,[5],-0.355 z-score
same,binding signal,[6],-0.319 z-score
same,binding signal,[7],4.93 z-score
same,binding signal,[8],-0.317 z-score
same,binding signal,[9],-0.348 z-score
same,binding signal,[10],-0.323 z-score
